PubChem BioAssay AID1671190 (National Center for Advancing Translational Sciences (NCATS), 2021)
Screen size: about 580,000 compounds; about 6,100 (1.1%) were called active. Inconclusive means that the source gave no clear call. Such entries were picked first, then a sample of the others. The call rests on the fitted dose curve; in most records, active means well fitted inhibition curve with a large enough effect; inconclusive means small, poorly fitted or top-dose-only effect, or another doubt; inactive means no such curve, though single readings can be large or run the other way. Potencies of inconclusive entries are doubtful fits and often do not repeat.

The chains behind the UniProt entries cited, without tags or fusion partners.
UniProt P18054, whole entry, looked up: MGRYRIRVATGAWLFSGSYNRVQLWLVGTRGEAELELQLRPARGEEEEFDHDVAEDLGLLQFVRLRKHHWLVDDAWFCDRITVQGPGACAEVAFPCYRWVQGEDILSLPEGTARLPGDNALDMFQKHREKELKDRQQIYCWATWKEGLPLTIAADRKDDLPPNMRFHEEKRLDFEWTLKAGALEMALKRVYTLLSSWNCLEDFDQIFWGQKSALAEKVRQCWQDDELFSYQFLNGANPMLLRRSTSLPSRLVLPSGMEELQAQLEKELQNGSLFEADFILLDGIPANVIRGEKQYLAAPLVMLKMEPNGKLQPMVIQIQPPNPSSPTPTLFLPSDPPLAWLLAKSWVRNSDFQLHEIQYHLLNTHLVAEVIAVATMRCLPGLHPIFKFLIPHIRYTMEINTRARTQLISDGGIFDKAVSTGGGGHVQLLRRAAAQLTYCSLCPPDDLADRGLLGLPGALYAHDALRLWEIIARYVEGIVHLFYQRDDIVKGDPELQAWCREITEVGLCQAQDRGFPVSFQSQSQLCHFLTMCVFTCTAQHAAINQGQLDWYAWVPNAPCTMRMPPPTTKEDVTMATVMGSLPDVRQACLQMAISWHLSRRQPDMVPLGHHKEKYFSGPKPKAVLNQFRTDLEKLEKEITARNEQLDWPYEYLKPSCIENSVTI

molecular target: Polyunsaturated fatty acid lipoxygenase ALOX12 (Homo sapiens) (UniProt P18054); assay: Primary qHTS assay for inhibitors of human arachidonate 12S-lipoxygenase (ALOX12): Round 2; conditions: purified 12hLO, xylenol orange hydroperoxide absorbance; activity change, negative = inhibition: at 108 µM (top of the series) unless noted
Outline: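 Hydroperoxide product was detected by ferrous iron/xylenol orange as the 573 to 405 nm absorbance ratio. Arachidonic acid at 40 uM (final) was turned over for 30 min at room temperature by 150 nM human 12hLO, pH 7.0 Hepes buffer, after 15 min compound preincubation.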
On the % scale 0 is the no-effect control and ±100 the full control effect; potency means the concentration at half of the fitted maximal effect.

Which Potency does the source give for `Cc1ccc(Cn2c(C(C)NC(=O)c3ccccc3)nc3ccccc32)cc1` (stereo unspecified) here?
Its Potency is inconclusive: 79.4 µM [inhibitor, partial curve, poor fit].

How did the Potency turn out when `O=C(NCCCN1CCN(c2ccccc2)CC1)c1ccc2nc(Cc3ccccc3)oc2c1` was run?
The Potency was inconclusive: 126 µM [inhibitor, single point].

How did the Potency turn out when `CCOc1cccc(-c2nc(-c3c[nH]c(C(=O)N4CCCC4)c3)cs2)c1` was run?
Its Potency is inconclusive: 79.4 µM [inhibitor, single point].

How did the “activity change, negative = inhibition” value turn out when `C[C@@H](C(=O)Nc1ccc2ccccc2c1)[C@@H]1C[C@@]1(C)[C@@H](NC(=O)c1ccccc1)c1ccccc1` was run?
Its value is inactive: -8.36%.

For `COc1ccc(C(=O)N/C(=C\c2ccco2)C(=O)OCc2ccco2)cc1`, which Potency is on record?
The Potency was inconclusive: 112 µM [inhibitor, single point].

For `Cc1cc(F)ccc1NS(=O)(=O)c1ccc(-c2cnc(C3CC3)o2)cc1`, which Potency is on record?
Its Potency is inconclusive: 126 µM [inhibitor, partial curve, poor fit].

`CCOC(=O)c1c(C)nn(-c2ccc(NC(=O)/C=C/C(=O)O)cc2)c1C` was tested. Which Potency did it give?
The Potency was inconclusive: 35.5 µM [inhibitor, single point].

`Cc1ccccc1N=C/C=C1\N(C)c2ccccc2C1(C)C` was tested. Which Potency did it give?
The Potency was inconclusive: 100 µM [inhibitor, single point].

`Cc1ccc2cc(C#N)c(NCCCNC(=O)C3CCCO3)nc2c1` (stereo unspecified) was tested. Which Potency did it give?
Its Potency is inconclusive: 70.8 µM [inhibitor, partial curve, poor fit].

How did the Potency turn out when `O=C(NC1CCCCC1)N1Cc2[nH]cnc2C[C@H]1c1nc(-c2cccc([N+](=O)[O-])c2)no1` was run?
Its Potency is active: 6.31 µM.

`C(=N\Nc1ccc2nncn2n1)/c1ccccn1` was tested. Which “activity change, negative = inhibition” value did it give?
Its value is inactive: 17.3%.

Which Potency does the source give for `Cc1cc2cc(NS(=O)(=O)c3cccc(F)c3)ccc2[nH]1` here?
The Potency was inconclusive: 100 µM [inhibitor, single point].

How did the “activity change, negative = inhibition” value turn out when `Cc1cc(C(=O)O)ccc1N/C=C1\CCCC(C)C1=O` (stereo unspecified) was run?
The value was inactive: 4.88%.

Which Potency does the source give for `Cc1cc(C)c(C(=O)C(C)OC(=O)c2ccccn2)cc1C` (stereo unspecified) here?
Its Potency is inconclusive: 0.891 µM [inhibitor, full curve, poor fit].

For `Cc1ccsc1C(=O)OCC(=O)c1cc(C)n(C)c1C`, which “activity change, negative = inhibition” value is on record?
The value was inactive: 25.8%.

Which “activity change, negative = inhibition” value does the source give for `O=C(c1ccc(S(=O)(=O)Cc2cc(F)ccc2F)c([N+](=O)[O-])c1)N1CCCC1` here?
The value was inactive: 0%.

How did the “activity change, negative = inhibition” value turn out when `Cc1cnc(CNC(=O)C2(N3CCCCC3)Cc3ccccc3C2)cn1` was run?
The value was inactive: 23.1%.

Which Potency does the source give for `Cc1cc2oc(=O)cc(COC(=O)CCCN=C3NS(=O)(=O)c4ccccc43)c2cc1C` here?
The Potency was inconclusive: 44.7 µM [inhibitor, partial curve, poor fit].

With `CCCCc1[nH]c(=O)c(C#N)c2c1CSC(C)(C)C2` as the compound, how does the Potency read?
Its Potency is inconclusive: 56.2 µM [inhibitor, partial curve, poor fit].

With `Cc1ccccc1SCC(=O)NCC1(N2CCCCC2)CCCCC1` as the compound, how does the Potency read?
Its Potency is inconclusive: 50.1 µM [inhibitor, partial curve, poor fit].

With `C(=C\c1ccccn1)/c1ccccc1` as the compound, how does the Potency read?
Its Potency is inconclusive: 89.1 µM [inhibitor, single point].

For `O=C1C2CCCN2C(=O)N1CCN1CCN(CCO)CC1` (stereo unspecified), which Potency is on record?
The Potency was inconclusive: 14.1 µM [inhibitor, partial curve, poor fit].

Which Potency does the source give for `CCS(=O)(=O)NCC1(COCCOC)C[C@@H](O)[C@@H](O)C1` (stereo partly specified) here?
The Potency was inconclusive: 35.5 µM [inhibitor, full curve].

With `CC(CN1c2ccccc2Sc2ccccc21)N(C)C` (stereo unspecified) as the compound, how does the Potency read?
Its Potency is inconclusive: 79.4 µM [inhibitor, partial curve, poor fit].

Which Potency does the source give for `O=C(NCCOc1ccccc1Cl)c1cccc2c1C(=O)c1ccc(Cl)cc1S2(=O)=O` here?
Its Potency is inconclusive: 44.7 µM [inhibitor, partial curve, poor fit].

With `CC12CCC(=O)N1C(C(=O)NCCN1C(=O)S/C(=C\c3ccc(F)cc3)C1=O)CS2` (stereo unspecified) as the compound, how does the Potency read?
The Potency was inconclusive: 3.98 µM [inhibitor, full curve, poor fit].

`Cc1cccc(OCCNC(=O)CSc2ccc(C(F)(F)F)cc2[N+](=O)[O-])c1` was tested. Which Potency did it give?
Its Potency is inconclusive: 50.1 µM [inhibitor, partial curve, poor fit].

With `COc1ccc(CN(C)C(=O)C2CC(=O)N(c3ccc4c(c3)OCCO4)C2)c(OC)c1` (stereo unspecified) as the compound, how does the “activity change, negative = inhibition” value read?
The value was inactive: 6.51%.

`CC1(C)CC(=NNC(N)=S)CC(C)(C)N1` was tested. Which Potency did it give?
Its Potency is inconclusive: 17.8 µM [inhibitor, partial curve, poor fit].

`COC(=O)c1ccc(C2Nc3ccc(/C(C)=N/NC(=O)C(OC)c4ccccc4)cc3C3C=CCC32)cc1` (stereo unspecified) was tested. Which Potency did it give?
The Potency was inconclusive: 3.55 µM [inhibitor, full curve, poor fit].

With `CCc1cc2c(=O)n(Cc3ccco3)c(SCC(=O)NC3CCS(=O)(=O)C3)nc2s1` (stereo unspecified) as the compound, how does the Potency read?
The Potency was inconclusive: 112 µM [inhibitor, single point].

With `Cc1cccc(Cn2cccc2CNS(=O)(=O)c2ccc(Br)cc2)c1` as the compound, how does the Potency read?
Its Potency is inconclusive: 89.1 µM [inhibitor, partial curve, poor fit].

How did the “activity change, negative = inhibition” value turn out when `CN(CC1CCOCC1)C(=O)c1c(F)cccc1Cl` was run?
Its value is inactive: 15.5%.

How did the “activity change, negative = inhibition” value turn out when `Cc1ccc(-n2ccnc2SCC(=O)O)c(C)c1` was run?
Its value is inactive: -4.89%.

`Cc1ccc2c(CC(=O)NCC(=O)Nc3c(C)cccc3C)coc2c1` was tested. Which Potency did it give?
Its Potency is inconclusive: 8.91 µM [inhibitor, partial curve, poor fit].

For `COc1ccc(NC(=O)CCn2c(=S)[nH]c3ccccc3c2=O)cc1Cl`, which Potency is on record?
Its Potency is inconclusive: 112 µM [inhibitor, single point].

How did the Potency turn out when `Cc1c2c(=O)n(-c3ccc(Cl)cc3)[nH]c2cc(=O)n1Cc1ccc(Cl)cc1` was run?
The Potency was inconclusive: 5.62 µM [inhibitor, full curve].

How did the “activity change, negative = inhibition” value turn out when `COc1cc(-c2nnc(SCCOc3cc(C)cc(C)c3)o2)cc(OC)c1OC` was run?
The value was inactive: -15.9%.

For `COCCn1nnnc1C(C(C)C)N1CCN(C(=O)c2ccco2)CC1` (stereo unspecified), which Potency is on record?
The Potency was inconclusive: 35.5 µM [inhibitor, partial curve, poor fit].

How did the Potency turn out when `C#CCNC(=O)C[C@@H]1c2nc(NC(=O)c3ccc(OC)cc3)sc2C[C@@H]2[C@](C)(CO)[C@H](O)CC[C@]21C` was run?
Its Potency is inconclusive: 89.1 µM [inhibitor, partial curve, poor fit].

`Cc1ccc(C(=O)Oc2cccc3cccnc23)cc1` was tested. Which “activity change, negative = inhibition” value did it give?
The value was inactive: 10.9%.
